Assay results: PubChem BioAssay AID1347075 (National Center for Advancing Translational Sciences (NCATS), 2019)
Values joined by “and” are separate entries in the source; they are usually repeats but may differ in a detail not shown here. Equal values may be shown once. The campaign covered roughly 400,000 compounds. About 5,500 (1.4%) were called active. The shares of active, inactive and inconclusive entries below differ from those in the screen. Calls follow the shape of the dose curve; as a rule, active = well fitted cell-killing curve with a large enough effect; inconclusive = small, poorly fitted or top-dose-only effect, or effect the other way; inactive = flat fitted curve, though single readings scatter. Where the call is inconclusive, the potency comes from a doubtful curve fit.

experiment: qHTS assay for MDR1-selective chemotherapeutics: Primary screen using the parental adenocarcinoma cell KB-3-1; details: KB-3-1 viability, CellTiter-Glo ATP luminescence, 72 h; activity change, negative = cytotoxic: at 46.1 µM (top of the series); also: nearly all actives have a fitted effect of over 60% in size
How it was run: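 Screening of KB-3-1 cells (DMEM, 10% FBS, phenol-red free) ran from lowest to highest compound concentration; after 72 h at 37 °C viability was read luminescently and curves fitted.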
% is scaled to controls: 0 for no effect and ±100 for the full control effect; potency is read from the fitted curve at half-maximal effect.

Row | Structure (SMILES) | Potency | activity change, negative = cytotoxic
1 | Cc1ccc(C(=O)C(c2ccccc2)N2Cc3ccccc3C2=N)cc1 (centres undefined) | inconclusive: 18.4 µM [cytotoxic, single point] | 
2 | O=[N+]([O-])c1cccc2ccc(/C=C/c3cccc(Br)c3)nc12 | inconclusive: 29.1 µM [cytotoxic, partial curve, poor fit] | 
3 | CCc1nc2ccccc2n1CC(=O)NC1CCS(=O)(=O)C1 (centres undefined) | inactive | 
4 | Cn1nnnc1Sc1ncnc2scc(-c3cccc(S(C)(=O)=O)c3)c12 | active: 20.6 µM | 
5 | C[C@H](CO)N1C[C@H](C)[C@@H](CN(C)Cc2cccc(F)c2)Oc2cc(-c3cccc(C#N)c3)ccc2S1(=O)=O | inactive | 
6 | Cc1ccc(Cc2cn3cc(-c4ccccc4)nc3s2)cc1 |  | inconclusive: -1.22%
7 | CC1(S(=O)(=O)O)CC(=O)c2ccccc2C1=O (centres undefined) | inconclusive: 20.6 µM [cytotoxic, single point] | 
8 | COC(=O)c1c(C)[nH]c(C(=O)/C=C/c2ccc(C)cc2)c1C | inactive | 
9 | CCOc1ccc(-c2nnn(CC(=O)c3cc(OC)ccc3OC)n2)cc1 | active: 14.6 µM | 
10 | CC(C)OC(=O)c1cc2c(ccn2C)n1CC(=O)N(Cc1ccccc1)c1ccc(F)cc1 | inactive | 
11 | C[C@@H]1CCCCO[C@H](CN(C)C)[C@H](C)CN([C@@H](C)CO)C(=O)c2cc(NC(=O)Nc3ccc(C(F)(F)F)cc3)ccc2O1 | inactive | 
12 | Cc1oncc1-c1csc(-c2ccccc2Cl)n1 | inconclusive: 8.2 µM [cytotoxic, partial curve, poor fit] | 
13 | CC(=O)NC(c1ccc(C(C)C)cc1)c1ccc2cccnc2c1O (centres undefined) | active: 0.651 µM | 
14 | CS(=O)(=O)c1nc([N+](=O)[O-])nn1CCCc1ccccc1 | active: 25.9 µM | 
15 | Cc1nn(Cc2noc(C(=O)NC(C)c3ccccc3)n2)c(C)c1Br (centres undefined) | inactive | 
16 | O=C(N/N=C/c1cn(-c2ccccc2)nc1-c1cc2ccccc2o1)c1ccncc1 | inconclusive: 25.9 µM [cytotoxic, partial curve, poor fit] | 
17 | O=C(Nc1ccc2c(c1)CCC2)c1cc(S(=O)(=O)Nc2ccc(F)cc2)c(Cl)cc1Cl | inconclusive: 23.1 µM [cytotoxic, single point] | 
18 | CCCn1nnc(NC(=O)COc2ccc(C3CCCCC3)cc2)n1 | inconclusive: 29.1 µM [rising, single point] | 
19 | O=[N+]([O-])c1ccc2nc(SCc3ccccc3Cl)sc2c1 | inactive | 
20 | CCOc1ccc(CN2CCN(Cc3cnc(N4CCOCC4)s3)CC2CCO)cc1 (centres undefined) | inconclusive: 14.6 µM [cytotoxic, partial curve, poor fit] | 
21 | ClC1(CNc2ccccc2)CCN(Cc2ccccc2)CC1 |  | inconclusive: 0%
22 | CC1CN(N=Cc2ccc([N+](=O)[O-])o2)C(=N)O1 (centres undefined) | inconclusive: 32.6 µM [cytotoxic, single point] | 

Row | Structure (SMILES) | Potency | activity change, negative = cytotoxic
23 | O=C1CCC[C@@H]2C[C@@]3(C[C@@H]4CCN1[C@H]24)Nc1cc(Cl)c(Cl)cc1NC3=NCc1ccccc1 | inconclusive: 23.1 µM [cytotoxic, single point] and inconclusive: 29.1 µM [cytotoxic, single point] | 
24 | CCn1cc(CNC(=O)c2ccc3nc(Cc4ccc(OC)cc4)oc3c2)cn1 | inconclusive: 29.1 µM [cytotoxic, single point] | 
25 | CC(C)(C)OC(=O)NCCCC[C@H](NC(=O)c1[nH]cnc1C(=O)Nc1ccccc1)C(=O)OC(C)(C)C | inconclusive: 29.1 µM [cytotoxic, single point] | 
26 | N#Cc1c(Cl)cccc1N1CCSCC1 | inconclusive: 16.4 µM [cytotoxic, single point] | 
27 | COc1ccc(S(=O)(=O)N2CCC[C@H]2C(=O)N2CCC[C@H]2C(=O)N(C)Cc2ccccc2)cc1C | inactive | 
28 | O=C1NC(=Nc2ccc(O)cc2)S/C1=C\C=C\c1ccco1 | active: 3.26 µM | 
29 | CCOC(=O)c1ccc(-c2c(C)cc3oc(=O)cc(-c4ccccc4)c3c2C)cc1 | inconclusive: 18.4 µM [cytotoxic, single point] | 
30 | COc1cc(OC)c2c(-c3cccc(-c4cccc(N)c4)c3)cc(=O)oc2c1 | active: 4.11 µM | 
31 | COc1ccc(NC(=O)C(=O)NCC(c2ccco2)N2CCc3ccccc32)cc1 (centres undefined) | inconclusive: 0.517 µM [cytotoxic, full curve, poor fit] | 
32 | CC(C)(C)c1ccc(C(=O)N2CCN(CCNC(=O)C(=O)NCc3ccc(Cl)cc3)CC2)cc1 | inconclusive: 16.4 µM [cytotoxic, single point] | 
33 | Cc1cccc(S(=O)(=O)NC(=O)C2(C)CCN2C(=O)c2ccccc2CCc2ccccc2)c1 (centres undefined) | inactive | 
34 | Cc1ccc(OCCNC(=O)c2cncc(Br)c2)cc1C | inconclusive: 29.1 µM [cytotoxic, single point] | 
35 | Cc1ccc(-c2ccc(CN3C(C(C)C)C(=O)N(Cc4cn(CCC5OCCCO5)nn4)CCS3(=O)=O)cc2)cc1 (centres undefined) | inconclusive: 18.4 µM [cytotoxic, single point] | 
36 | COc1cc(OC)c(C2=NOC(C(=O)NCc3cccnc3)C2)cc1Cl (centres undefined) | inconclusive: 23.1 µM [cytotoxic, single point] | 
37 | CCC(=NC)C1=C(O)CC(c2ccccc2)CC1=O (centres undefined) | inactive | 
38 | COc1ccccc1CNC(=O)c1ccc2nc3[nH]c4ccccc4c3nc2c1 | inconclusive: 29.1 µM [cytotoxic, single point] | 
39 | O=C(C[n+]1cc(-c2ccc(Cl)c(Cl)c2)n2c1CCC2)c1cccs1 | inconclusive: 29.1 µM [cytotoxic, single point] | 
40 | CNc1ccc(Oc2nc([N+](=O)[O-])nn2C)cc1 | inactive | 
41 | COC(=O)c1ccc(NC(=O)CCS(=O)(=O)c2ccc3c(c2)NC(=O)C(C)S3)cc1 (centres undefined) | inactive | 
42 | Cc1cccc(C)c1Cn1c(C)c(C(=O)NCc2ccc(C#N)cc2)sc1=O | inconclusive: 20.6 µM [cytotoxic, single point] | 
43 | COc1ccc(-c2cc(C(=O)Nc3ccc(C(N)=O)cc3)c3ccccc3n2)cc1OC | inconclusive: 1.16 µM [rising, full curve, poor fit] | 
44 | Cn1c(N)c(C(=O)COC(=O)CCc2nc3ccccc3s2)c(=O)n(C)c1=O | inactive | 

A draw from above in order of length of the SMILES, descending.
Row | Structure (SMILES) | Potency | activity change, negative = cytotoxic
35 | Cc1ccc(-c2ccc(CN3C(C(C)C)C(=O)N(Cc4cn(CCC5OCCCO5)nn4)CCS3(=O)=O)cc2)cc1 (centres undefined) | inconclusive: 18.4 µM [cytotoxic, single point] | 
36 | COc1cc(OC)c(C2=NOC(C(=O)NCc3cccnc3)C2)cc1Cl (centres undefined) | inconclusive: 23.1 µM [cytotoxic, single point] | 
40 | CNc1ccc(Oc2nc([N+](=O)[O-])nn2C)cc1 | inactive | 
